From US20070036793A1, “Methods for use of an lkb1/strad7mo25 complex” (priority 2003, published 2007)
Positions count from the first letter of the chain named. These are yes or no findings as the source states them, for the method shown. Some binding calls cover weakened binding; strength is not graded here. Where a sequence is shown, tags or fusion partners need not be part of it.

Sequences of proteins named here, by UniProt entry; tags and fusion partners are left off. Residues count along the entry.
UniProt P08238, residues 2-724: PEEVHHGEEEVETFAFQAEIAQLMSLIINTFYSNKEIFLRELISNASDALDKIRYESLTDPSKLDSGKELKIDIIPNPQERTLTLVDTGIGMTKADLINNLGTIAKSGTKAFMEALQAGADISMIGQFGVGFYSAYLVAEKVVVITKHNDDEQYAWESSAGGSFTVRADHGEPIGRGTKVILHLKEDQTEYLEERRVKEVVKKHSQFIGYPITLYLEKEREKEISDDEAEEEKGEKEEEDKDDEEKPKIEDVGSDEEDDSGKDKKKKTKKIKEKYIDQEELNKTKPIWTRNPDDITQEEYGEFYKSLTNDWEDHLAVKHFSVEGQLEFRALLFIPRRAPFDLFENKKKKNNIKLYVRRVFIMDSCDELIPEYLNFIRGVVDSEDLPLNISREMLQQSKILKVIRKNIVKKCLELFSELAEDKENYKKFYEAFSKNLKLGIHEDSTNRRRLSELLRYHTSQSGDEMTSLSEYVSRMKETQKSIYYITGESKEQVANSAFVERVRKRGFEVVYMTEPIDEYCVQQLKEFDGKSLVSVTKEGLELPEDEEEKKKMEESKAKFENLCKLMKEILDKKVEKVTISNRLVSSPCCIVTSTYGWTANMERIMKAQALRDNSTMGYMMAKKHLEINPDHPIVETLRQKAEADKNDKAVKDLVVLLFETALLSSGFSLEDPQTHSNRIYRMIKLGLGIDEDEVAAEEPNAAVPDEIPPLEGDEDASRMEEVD

Tests used:
[1] = target: T1, N-terminal Flag epitope tagged kinase dead LKB1 (D194A) (mouse) (UniProt Q9WTK7); assay: anti-Flag affinity purification of Flag-LKB1 from HeLa cells; mass fingerprint and immunoblot
T1 sequence: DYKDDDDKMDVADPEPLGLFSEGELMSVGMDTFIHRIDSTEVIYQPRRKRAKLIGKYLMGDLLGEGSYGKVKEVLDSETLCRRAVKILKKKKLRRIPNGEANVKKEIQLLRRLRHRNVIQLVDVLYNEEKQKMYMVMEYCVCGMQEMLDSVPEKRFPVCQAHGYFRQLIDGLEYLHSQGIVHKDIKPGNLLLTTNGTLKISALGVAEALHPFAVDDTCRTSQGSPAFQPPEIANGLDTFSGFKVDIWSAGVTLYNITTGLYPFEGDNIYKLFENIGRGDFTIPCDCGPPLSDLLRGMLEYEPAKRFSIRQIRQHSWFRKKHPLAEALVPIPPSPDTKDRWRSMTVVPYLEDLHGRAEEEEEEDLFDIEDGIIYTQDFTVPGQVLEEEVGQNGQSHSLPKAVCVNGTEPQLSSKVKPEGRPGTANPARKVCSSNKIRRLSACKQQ

[2] = target: T2, N-terminal Flag epitope tagged wild type LKB1 (mouse) (UniProt Q9WTK7); assay: as above
T2 sequence: T1 sequence with A202D

Substance: Hsp90 chaperone protein, endogenous in HeLa cells (from UniProt P08238 2-724)
- binding [1]: binds
- binding [2]: binds
